Results are given in words; binding and its absence hold for the method and conditions named. In cells and extracts the contact can be indirect. Some binding calls cover weakened binding; strength is not graded here.
B1: Adenylosuccinate lyase (enzyme, UniProt P30566 1-484)
chain: MAAGGDHGSPDSYRSPLASRYASPEMCFVFSDRYKFRTWRQLWLWLAEAEQTLGLPITDEQIQEMKSNLENIDFKMAAEEEKRLRHDVMAHVHTFGHCCPKAAGIIHLGATSCYVGDNTDLIILRNALDLLLPKLARVISRLADFAKERASLPTLGFTHFQPAQLTTVGKRCCLWIQDLCMDLQNLKRVRDDLRFRGVKGTTGTQASFLQLFEGDDHKVEQLDKMVTEKAGFKRAFIITGQTYTRKVDIEVLSVLASLGASVHKICTDIRLLANLKEMEEPFEKQQIGSSAMPYKRNPMRSERCCSLARHLMTLVMDPLQTASVQWFERTLDDSANRRICLAEAFLTADTILNTLQNISEGLVVYPKVIERRIRQELPFMATENIIMAMVKAGGSRQDCHEKIRVLSQQAASVVKQEGGDNDLIERIQVDAYFSPIHSQLDHLLDPSSFTGRASQQVQRFLEEEVYPLLKPYESVMKVKAELCL
B2: Flotillin-2 (natural protein, human (endogenous in RBCs), UniProt Q14254 1-428, looked up)
chain: MGNCHTVGPNEALVVSGGCCGSDYKQYVFGGWAWAWWCISDTQRISLEIMTLQPRCEDVETAEGVALTVTGVAQVKIMTEKELLAVACEQFLGKNVQDIKNVVLQTLEGHLRSILGTLTVEQIYQDRDQFAKLVREVAAPDVGRMGIEILSFTIKDVYDKVDYLSSLGKTQTAVVQRDADIGVAEAERDAGIREAECKKEMLDVKFMADTKIADSKRAFELQKSAFSEEVNIKTAEAQLAYELQGAREQQKIRQEEIEIEVVQRKKQIAVEAQEILRTDKELIATVRRPAEAEAHRIQQIAEGEKVKQVLLAQAEAEKIRKIGEAEAAVIEAMGKAEAERMKLKAEAYQKYGDAAKMALVLEALPQIAAKIAAPLTKVDEIVVLSGDNSKVTSEVNRLLAELPASVHALTGVDLSKIPLIKKATGVQV
notes: flotillin-2, human, SwissProt Q14254; source: endogenous, membranes of stored human RBCs and storage-induced microvesicles, 1% deoxycholate extract

Protein sequences, listed by entry. Tags and fused reporters are not part of them.
UniProt P02730: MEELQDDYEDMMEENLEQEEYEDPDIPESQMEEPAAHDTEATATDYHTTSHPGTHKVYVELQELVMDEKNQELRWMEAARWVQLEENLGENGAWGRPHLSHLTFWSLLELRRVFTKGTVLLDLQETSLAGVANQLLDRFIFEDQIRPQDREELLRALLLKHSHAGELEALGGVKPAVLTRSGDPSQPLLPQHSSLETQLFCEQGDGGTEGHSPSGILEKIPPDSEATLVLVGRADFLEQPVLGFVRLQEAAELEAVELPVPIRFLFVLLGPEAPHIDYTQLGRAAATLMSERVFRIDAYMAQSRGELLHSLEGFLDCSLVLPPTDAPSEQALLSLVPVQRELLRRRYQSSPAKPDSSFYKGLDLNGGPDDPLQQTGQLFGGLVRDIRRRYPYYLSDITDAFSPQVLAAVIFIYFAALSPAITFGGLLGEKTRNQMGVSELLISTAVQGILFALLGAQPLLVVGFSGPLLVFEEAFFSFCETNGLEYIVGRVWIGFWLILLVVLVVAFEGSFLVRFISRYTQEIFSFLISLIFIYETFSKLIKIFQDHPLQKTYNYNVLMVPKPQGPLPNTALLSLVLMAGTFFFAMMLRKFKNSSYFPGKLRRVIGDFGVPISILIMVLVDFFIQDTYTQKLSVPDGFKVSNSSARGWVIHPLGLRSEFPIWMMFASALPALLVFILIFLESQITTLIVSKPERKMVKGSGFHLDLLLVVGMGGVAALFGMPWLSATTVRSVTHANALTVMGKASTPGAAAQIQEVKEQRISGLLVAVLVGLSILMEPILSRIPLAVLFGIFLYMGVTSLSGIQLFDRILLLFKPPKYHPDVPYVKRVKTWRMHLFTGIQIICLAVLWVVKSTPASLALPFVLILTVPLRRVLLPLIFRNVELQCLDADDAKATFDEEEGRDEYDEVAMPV
UniProt P35611: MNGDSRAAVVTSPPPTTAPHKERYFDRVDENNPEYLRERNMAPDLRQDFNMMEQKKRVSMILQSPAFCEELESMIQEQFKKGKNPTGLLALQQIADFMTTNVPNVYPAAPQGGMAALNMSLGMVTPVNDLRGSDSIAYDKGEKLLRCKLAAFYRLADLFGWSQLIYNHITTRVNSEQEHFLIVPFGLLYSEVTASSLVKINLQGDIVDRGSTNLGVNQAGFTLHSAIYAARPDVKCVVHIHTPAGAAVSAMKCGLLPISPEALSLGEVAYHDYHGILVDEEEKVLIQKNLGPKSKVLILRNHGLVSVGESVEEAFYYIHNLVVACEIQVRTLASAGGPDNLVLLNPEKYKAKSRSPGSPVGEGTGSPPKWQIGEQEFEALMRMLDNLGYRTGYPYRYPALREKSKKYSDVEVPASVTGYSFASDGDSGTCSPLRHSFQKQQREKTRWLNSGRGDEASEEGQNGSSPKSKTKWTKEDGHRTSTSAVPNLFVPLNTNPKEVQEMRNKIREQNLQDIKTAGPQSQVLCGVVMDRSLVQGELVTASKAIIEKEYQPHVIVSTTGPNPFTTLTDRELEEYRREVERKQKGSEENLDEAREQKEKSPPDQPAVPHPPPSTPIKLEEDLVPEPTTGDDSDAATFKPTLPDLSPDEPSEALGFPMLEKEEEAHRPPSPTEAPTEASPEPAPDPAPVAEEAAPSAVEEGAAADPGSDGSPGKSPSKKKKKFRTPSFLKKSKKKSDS

Experiments:
[1] = molecular target: band 3 (human (endogenous in RBCs)) (UniProt P02730); assay: co-IP; band 3 complexes captured from 1% deoxycholate extracts of RBC membranes (short- and long-stored ECs, bags A-C) on beads coated with BRIC 6 and BRIC 170; eluates analysed by western blot (ADSL, α-adducin, flotillin-2), densitometry relative to Ponceau loading
[2] = molecular target: band 3 (human (endogenous in RBCs)) (UniProt P02730); assay: co-IP; band 3 complexes captured from 1% deoxycholate extracts of storage-induced microvesicles (bags D-F; compared with RBCs of the same bags) on beads coated with BRIC 6 and BRIC 170; eluates analysed by western blot for flotillin-2, densitometry

Molecule | binding [1] | binding [2]
Alpha-adducin (from UniProt P35611 1-737) | binds | –
B1 | binds | –
B2 | binds | binds

Source: publication PMC5945891, “Proteomics of Stored Red Blood Cell Membrane and Storage-Induced Microvesicles Reveals the Association of Flotillin-2 With Band 3 Complexes” (Frontiers in Physiology, 2018)
